This is one part of the list.

Sequences of proteins named here, by UniProt entry; tags and fusion partners are left off.
UniProt Q0JBA9, entry or part of it: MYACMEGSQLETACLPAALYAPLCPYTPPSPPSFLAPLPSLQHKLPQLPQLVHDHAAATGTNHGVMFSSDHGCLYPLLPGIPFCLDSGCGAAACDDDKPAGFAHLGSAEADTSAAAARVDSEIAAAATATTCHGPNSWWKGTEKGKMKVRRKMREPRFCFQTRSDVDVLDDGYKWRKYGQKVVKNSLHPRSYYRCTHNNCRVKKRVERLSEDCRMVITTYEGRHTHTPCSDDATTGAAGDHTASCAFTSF

The target of this assay is OsWRKY34 (Oryza sativa, UniProt Q0JBA9 1-250). The assay is described as follows: protein-binding microarray (RPBM); PBS, 2% BSA, 51.3 ng/ul salmon testes DNA, 50 uM zinc acetate, 200 nM TF, 25 C, 1 h; high values mean tight binding. The following applies: protein: recombinant; tags: N-terminal polyhistidine and DsRed monomer fusion (pET32a); label: CyDye5-dUTP incorporated in the synthesized complementary strand; 3' TTTTT single-stranded linker to array surface; dsDNA, one strand shown. The gist of the method: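 The binding signal for each feature is its fluorescence intensity in arbitrary units. An Axon 4000B scanner was used to read a custom Agilent array that had been made double-stranded with Cy5-dUTP primer extension, blocked with 2% BSA, incubated at 25 °C for 1 h with 200 nM protein in PBS, 2% BSA, salmon testes DNA and 50 µM zinc acetate, and washed. The protein was an N-terminal polyhistidine–DsRed transcription factor fusion from E. coli BL21-CodonPlus, purified on Ni–NTA.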
“AGCTTTTTGTGTTCATTGGCCATTGTGTAGTAATTAAAACCGGAGTCACCTAGTGCAG”: the binding signal was 8600 fluorescence intensity (a.u.). With “CACCGAAGAAATGTTTTTTAAACCTCTTCTTTTATTTATTCGGAGTCACCTAGTGCAG”, the binding signal is 8110 fluorescence intensity (a.u.). As for “TAAGTAGCATTTTCTGTTTCATCAGACCATTTTATCCTCTCGGAGTCACCTAGTGCAG”, the binding signal is 9760 fluorescence intensity (a.u.).

In the case of “GTGCTTACGGTTTTTTTATTTTTATTTTTGTGTTGAAAATCGGAGTCACCTAGTGCAG”, the binding signal was 9800 fluorescence intensity (a.u.). The same measure for “TCGCTGCGGGTGGGTAGCGCAGCGTCGGGGCAGATCCGGCCGGAGTCACCTAGTGCAG”: 10400 fluorescence intensity (a.u.). In the case of “CGCGCATCCCGGTTCGGAATCCGCTGCCGCCACCTTTCCCCGGAGTCACCTAGTGCAG”, the binding signal is 8800 fluorescence intensity (a.u.). The figure for “GTCTTCAACACGTCCTCGCTCACGACCACTCTACGGTGCCCGGAGTCACCTAGTGCAG” is 8600 fluorescence intensity (a.u.). The figure for “TGCGTCGTCTGTACCCGTACACATACCTAACCGCATCAGGCGGAGTCACCTAGTGCAG” is 9890 fluorescence intensity (a.u.). Take “GCTACTATCCATCACTAACATTTTTCCTAACATATTCCCTCGGAGTCACCTAGTGCAG”: the binding signal is 10800 fluorescence intensity (a.u.). The same measure for “CTCTGTGTTGCGCCGTCACTCGTAGACTACTCCATCCCGCCGGAGTCACCTAGTGCAG”: 9430 fluorescence intensity (a.u.); for “ACACCATGTTTCCACATTGCATTTCCTTCTGTTTTTTCTTCGGAGTCACCTAGTGCAG”: 17600 fluorescence intensity (a.u.).

In the case of “GTGCCACGGCTATTTTTCTTCTCAGTTGGATAAGTCGGGTCGGAGTCACCTAGTGCAG”, the binding signal is 8640 fluorescence intensity (a.u.). The figure for “ATCTGCCTGGCCACTTAGCCCGTGTGACCCATTTTTCGTTCGGAGTCACCTAGTGCAG” is 9610 fluorescence intensity (a.u.). As for “CTCGTTGTTGTCTCTTCTCGCGCGTAGAGCTCTCTGCACTCGGAGTCACCTAGTGCAG”, the binding signal is 8090 fluorescence intensity (a.u.). As for “GCCACGTCATCTATCCGGCCTTCTCACGTCTAACCAATCACGGAGTCACCTAGTGCAG”, the binding signal is 8060 fluorescence intensity (a.u.).

For “TCGTGGCTGGGGAGGGACAAGAGGGAGGACGCGAGGCTGACGGAGTCACCTAGTGCAG”, the binding signal was 11300 fluorescence intensity (a.u.).

For the sequence “CGCAGAATCACAGTTTTTCTTCATCTCCGGCAAGGGTAATCGGAGTCACCTAGTGCAG”, the binding signal is 8960 fluorescence intensity (a.u.). As to “ACCGATCCTTGCCGCTAATCTCTACTACTTTAAAATTTTGCGGAGTCACCTAGTGCAG”, the binding signal is 8160 fluorescence intensity (a.u.). The figure for “ACTTGTATTCCTATGAGAATCCTATGTTTTTCCTATTCCTCGGAGTCACCTAGTGCAG” is 8950 fluorescence intensity (a.u.).

In the case of “CGTTTTATTTTTGGTTGTTTTTCTGTTTGGGTTTTGATTTCGGAGTCACCTAGTGCAG”, the binding signal is 11300 fluorescence intensity (a.u.).

For the sequence “TGCTTCTCTATCACCAAATTTCTCAGTTTGTTCACAATTGCGGAGTCACCTAGTGCAG”, the binding signal is 8290 fluorescence intensity (a.u.). The same measure for “ACTCTGTACTGCGCCGTCACTCGTAGACTACTCCATCCCGCGGAGTCACCTAGTGCAG”: 9600 fluorescence intensity (a.u.); for “TTCTCTTCCCGCGTCTCCTCGCGCCTCTTCCCGCCAATCGCGGAGTCACCTAGTGCAG”: 8200 fluorescence intensity (a.u.); for “TCCCCTACCGCTGCCCACCGCCGTCCACCACCGCCTTTCTCGGAGTCACCTAGTGCAG”: 17000 fluorescence intensity (a.u.). The figure for “TAAGTTTTTTCCCAATTTTCTCTGTCTCATTCTCCTCAAACGGAGTCACCTAGTGCAG” is 9670 fluorescence intensity (a.u.). The same measure for “TCGTGGCCTTCAAGTTTCTGCTAGCTTCGTCCTTCGTTGCCGGAGTCACCTAGTGCAG”: 9720 fluorescence intensity (a.u.); for “GCTTCAGTTGGCAGCTGCCCTGTTTCTGCTTCATGTCCTGCGGAGTCACCTAGTGCAG”: 9450 fluorescence intensity (a.u.). Regarding “TGTCTGTTCTTTCTTTTTTTTTTTCCCTCTCGTTCTTACTCGGAGTCACCTAGTGCAG”, the binding signal is 9530 fluorescence intensity (a.u.).

Take “ACCCTCATGCTAAAAGTTTAGTATCTGGATGTTTTTATATCGGAGTCACCTAGTGCAG”: the binding signal was 9090 fluorescence intensity (a.u.).

As to “AGGGACAGGGTTGGTGAAGTGGCTTCCATGCGGCGGCCACCGGAGTCACCTAGTGCAG”, the binding signal is 8150 fluorescence intensity (a.u.). With “CCGAGCTCCATCTCTGCCTCTTCCAGACGCGTCACCACTCCGGAGTCACCTAGTGCAG”, the binding signal was 11300 fluorescence intensity (a.u.). The same measure for “AGCCTCACAACGGTTATTTTCAAATTTGAACGGTCAAATACGGAGTCACCTAGTGCAG”: 8570 fluorescence intensity (a.u.). On to “CTAGCTCACACACAATTGCATACACCTAGCTCAAAAGCCTCGGAGTCACCTAGTGCAG”, for which the binding signal was 9080 fluorescence intensity (a.u.). The same measure for “GTTTCAATCTCCATTTCTCAATCCTTCTTGAGCACCATCTCGGAGTCACCTAGTGCAG”: 8260 fluorescence intensity (a.u.). For the sequence “GGATTTTGGAGTAGATTTTTCATGATGTTAATGGCATGTTCGGAGTCACCTAGTGCAG”, the binding signal was 8240 fluorescence intensity (a.u.). The figure for “CTTCTTCTTCCTCGTATTGCTGCTGCTGCTTTTGGTCTCCCGGAGTCACCTAGTGCAG” is 8740 fluorescence intensity (a.u.); for “TGTATGTCACTTACAGGTGGGCCCCATGTGCCTTTTAATTCGGAGTCACCTAGTGCAG” it is 8630 fluorescence intensity (a.u.); for “CCTCCCTAATTAGTACTCCACTCCACAAAACACCTCCTTCCGGAGTCACCTAGTGCAG” it is 8690 fluorescence intensity (a.u.).

Regarding “ATTTTGCTACCGGATCTAAACCCTATTTTCACAAGCTAATCGGAGTCACCTAGTGCAG”, the binding signal was 10500 fluorescence intensity (a.u.). For the sequence “CTTTTTTCTTTAATTATTTTCCGCGAAACAACAATAAATACGGAGTCACCTAGTGCAG”, the binding signal was 9690 fluorescence intensity (a.u.). The figure for “GTTGCGCCTTAGCGATCGATACACCTCTCCGAGTAATGTTCGGAGTCACCTAGTGCAG” is 8370 fluorescence intensity (a.u.). The same measure for “GCTGGTGTGTTCGCGTGGGACGTGTATGACTGACAATTAGCGGAGTCACCTAGTGCAG”: 8900 fluorescence intensity (a.u.).

The record behind these values is publication PMC7819943, “Rice protein-binding microarrays: a tool to detect cis-acting elements near promoter regions in rice”.
